PMC12120717
Results are given in words; binding and its absence hold for the method and conditions named. Binding seen in cells or lysates may run through a third protein. Some binding calls cover weakened binding; strength is not graded here.

Target: T1, ubiquitin‐like protein with plant homeodomain and ring finger domains 1 (UHRF1) (human) (UniProt Q96T88)
T1 sequence: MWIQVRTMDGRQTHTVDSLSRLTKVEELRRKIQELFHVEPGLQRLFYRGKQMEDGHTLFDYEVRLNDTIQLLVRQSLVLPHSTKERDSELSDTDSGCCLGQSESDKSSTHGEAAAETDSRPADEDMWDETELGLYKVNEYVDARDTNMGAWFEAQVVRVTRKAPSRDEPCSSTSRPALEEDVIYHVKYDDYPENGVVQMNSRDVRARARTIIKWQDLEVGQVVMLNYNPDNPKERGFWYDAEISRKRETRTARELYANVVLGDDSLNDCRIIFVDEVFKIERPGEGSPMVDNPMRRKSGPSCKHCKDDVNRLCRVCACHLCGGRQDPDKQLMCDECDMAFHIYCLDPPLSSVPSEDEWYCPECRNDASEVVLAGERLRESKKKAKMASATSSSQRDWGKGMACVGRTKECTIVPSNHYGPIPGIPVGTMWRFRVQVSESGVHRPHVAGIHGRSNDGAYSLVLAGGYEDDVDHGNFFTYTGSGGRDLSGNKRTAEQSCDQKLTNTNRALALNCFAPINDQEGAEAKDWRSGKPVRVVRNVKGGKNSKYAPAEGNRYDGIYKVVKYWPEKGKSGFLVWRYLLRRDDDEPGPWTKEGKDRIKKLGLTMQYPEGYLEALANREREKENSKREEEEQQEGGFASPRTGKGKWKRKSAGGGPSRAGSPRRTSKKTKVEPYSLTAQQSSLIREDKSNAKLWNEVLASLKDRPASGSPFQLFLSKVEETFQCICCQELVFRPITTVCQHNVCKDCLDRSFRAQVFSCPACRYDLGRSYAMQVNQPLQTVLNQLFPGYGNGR
Test: co-IP; immunoprecipitation by a previously described protocol (ref. 47); cells, precipitating antibody and bait not stated; for DNMT1/DNMT3A also after UHRF1 knockdown

- binding: binds
B1: LHX1 (protein, UniProt P48742 1-406)
chain: MVHCAGCKRPILDRFLLNVLDRAWHVKCVQCCECKCNLTEKCFSREGKLYCKNDFFRCFGTKCAGCAQGISPSDLVRRARSKVFHLNCFTCMMCNKQLSTGEELYIIDENKFVCKEDYLSNSSVAKENSLHSATTGSDPSLSPDSQDPSQDDAKDSESANVSDKEAGSNENDDQNLGAKRRGPRTTIKAKQLETLKAAFAATPKPTRHIREQLAQETGLNMRVIQVWFQNRRSKERRMKQLSALGARRHAFFRSPRRMRPLVDRLEPGELIPNGPFSFYGDYQSEYYGPGGNYDFFPQGPPSSQAQTPVDLPFVPSSGPSGTPLGGLEHPLPGHHPSSEAQRFTDILAHPPGDSPSPEPSLPGPLHSMSAEVFGPSPPFSSLSVNGGASYGNHLSHPPEMNEAAVW
